{
  "source": "paper PMC6073896",
  "target": "endothelial nitric oxide (NO) synthase (mouse (endogenous in C57Bl/6 left ventricle)) (UniProt P70313)",
  "assay": "low-temperature SDS-PAGE (LT-PAGE) with immunoblot; total LV proteins in 5x Laemmli buffer without 2-mercaptoethanol; gels and buffers equilibrated at 4 °C, buffer tank in an ice bath; probed with anti-eNOS antibody; monomer and dimer bands quantified; mice after sham, MI or TAC surgery, sedentary or with eight weeks of voluntary wheel running",
  "note": "Results are given in words; binding and its absence hold for the method and conditions named. Some results given as binding are weak or reduced against the parent protein; the word gives no strength.",
  "data": [
    {"binder": "endothelial nitric oxide (NO) synthase (enzyme, UniProt P70313 1-1202) MGNLKSVGQEPGPPCGLGLGLGLGLCGKQGPASPAPEPSQAPAPPSPTRPAPDHSPPLTRPPDGPRFPRVKNWEVGSITYDTLSAQAQQDGPCTSRRCLGSLVFPRKLQSRPTQGPSPTEQLLGQARDFINQYYNSIKRSGSQAHEQRLQEVEAEVAATGTYQLRESELVFGAKQAWRNAPRCVGRIQWGKLQVFDARDCRTAQEMFTYICNHIKYATNRGNLRSAITVFPQRCPGRGDFRIWNSQLIRYAGYRQQDGSVRGDPANVEITELCIQHGWTPGNGRFDVLPLLLQAPDEPPELFTLPPEMVLEVPLEHPTLEWFAALGLRWYALPAVSNMLLEIGGLEFPAAPFSGWYMSSEIGMRDLCDPHRYNILEDVAVCMDLDTRTTSSLWKDKAAVEINVAVLHSYQLAKVTIVDHHAATASFMKHLENEQKARGGCPADWAWIVPPISGSLTPVFHQEMVNYFLSPAFRYQPDPWKGSAAKGAGITRKKTFKEVANAVKISASLMGTVMAKRVKATILYGSETGRAQSYAQQLGRLFRKAFDPRVLCMDEYDVVSLEHEALVLVVTSTFGNGDPPENGESFAAALMEMSGPYNSSPRPEQHKSYKIRFNSVSCSDPLVSSWRRKRKESSNTDSAGALGTLRFCVFGLGSRAYPHFCAFARAVDTRLEELGGERLLQLGQGDELCGQEEAFRGWAQAAFQAACETFCVGEDAKAAARDIFSPKRSWKRQRYRLSTQAESLQLLPGLTHVHRRKMFQATILSVENLQSSKSTRATILVRLDTGGQEGLQYQPGDHIGVCPPNRPGLVEALLSRVEDPPPSTEPVAVEQLEKGSPGGPPPGWVRDPRLPPCTLRQALTYFLDITSPPSPRLLRLLSTLAEESSEQQELEALSQDPRRYEEWKWFSCPTLLEVLEQFPSVALPAPLILTQLPLLQPRYYSVSSAPSAHPGEIHLTIAVLAYRTQDGLGPLHYGVCSTWMSQLKAGDPVPCFIRGAPSFRLPPDPNLPCILVGPGTGIAPFRGFWQDRLHDIEIKGLQPAPMTLVFGCRCSQLDHLYRDEVLDAQQRGVFGQVLTAFSRDPGSPKTYVQDLLRTELAAEVHRVLCLEQGHMFVCGDVTMATSVLQTVQRILATEGGMELDEAGDVIGVLRDQQRYHEDIFGLTLRTQEVTSRIRTQSFSLQERQLRGAVPWSFDPPGPEIPGS", "values": [
      {"measurement": "binding", "result": "binds"}
    ]}
  ]
}
